The results in this text go back to patent US7592341B2, “Peptide-enhanced corneal drug delivery” (Kansas State University Research Foundation, priority 2004, dated 2009).

In this series the test system is NC-1059. In words: Quantitative isothermal calorimetry of dye binding to NC-1059. The note with it: ΔH of injectant vs molar ratio dye/peptide; 5 mM NaF, 15 mM CF. A general note: Isothermal titration calorimetry measures the heat released or taken up as one component is titrated into another.

With 5(6)-Carboxy Fluorescein [CF], the “best-fit binding model of dye to NC-1059” value is “single binding site”.
The same measure for Sodium Carboxy Fluorescein [NaF]: “two-site model”.
